Laboratory results: PubChem BioAssay AID1259424 (University of Nebraska Medical Center, 2018)
This is a random part of about 14,000 reagents. 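Higher correlation or smaller distance means closer resemblance to KSR1 loss; control wells, including KSR1 knockdowns, recur on many plates.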 Not all columns of the deposit are shown. Not stated in the record: the time to read-out.

Test: 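Find knockdowns that reproduce the expression shifts seen after KSR1 loss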 (primary screen)
System: human HCT116 colon cancer cells
Reagent: siRNA pool against human genes, 50 nM
Read-out: 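Log2 levels of six mRNAs (branched-DNA multiplex), adjusted by two reference genes and the non-targeting median, then scored against the average KSR1 knockdown pattern as Pearson r and euclidean distance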
Reading the numbers: mean correlation with KSR1 profile: higher = expression change more like KSR1 knockdown; mean distance from KSR1 profile: higher = expression change less like KSR1 knockdown

Knock-down of PPP6C (GeneID 5537) resulted in: mean correlation with KSR1 profile -0.42; mean distance from KSR1 profile 2.42.
Silencing of ACRV1 (GeneID 56) resulted in: mean correlation with KSR1 profile -0.36; mean distance from KSR1 profile 4.25.
Against CRYZ (GeneID 1429) the deposit lists mean correlation with KSR1 profile -0.138; mean distance from KSR1 profile 2.11.
ZIC3 (GeneID 7547) gave mean correlation with KSR1 profile 0.565; mean distance from KSR1 profile 1.44.
With knock-down of SOX18 (GeneID 54345), the record shows mean correlation with KSR1 profile 0.475; mean distance from KSR1 profile 2.21.
Silencing of PUM1 (GeneID 9698) gave: mean correlation with KSR1 profile 0.734; mean distance from KSR1 profile 2.46.
Knock-down of PCMTD2 (GeneID 55251) resulted in: mean correlation with KSR1 profile -0.652; mean distance from KSR1 profile 1.81.
MAP3K1 (GeneID 4214) gave mean correlation with KSR1 profile -0.0977; mean distance from KSR1 profile 2.43.
Depletion of YAP1 (GeneID 10413) came out at: mean correlation with KSR1 profile 0.277; mean distance from KSR1 profile 2.45.
Against HOXD3 (GeneID 3232), the entry reads mean correlation with KSR1 profile 0.0811; mean distance from KSR1 profile 2.12.
VN1R2 (GeneID 317701) showed mean correlation with KSR1 profile 0.855; mean distance from KSR1 profile 1.59.
Depletion of ABCA7 (GeneID 10347) gave: mean correlation with KSR1 profile 0.339; mean distance from KSR1 profile 1.49.
With knock-down of DIP2C (GeneID 22982), the screen gave mean correlation with KSR1 profile 0.405; mean distance from KSR1 profile 1.47.
Against BIRC3 (GeneID 330) the deposit lists mean correlation with KSR1 profile -0.123; mean distance from KSR1 profile 1.2.
CAMSAP3 (GeneID 57662) gave mean correlation with KSR1 profile -0.429; mean distance from KSR1 profile 2.75.
Depletion of HDGFL3 (GeneID 50810) came out at: mean correlation with KSR1 profile -0.663; mean distance from KSR1 profile 1.67.
SEMA3F (GeneID 6405) showed mean correlation with KSR1 profile -0.795; mean distance from KSR1 profile 3.19.
AP5S1 (GeneID 55317) gave mean correlation with KSR1 profile 0.689; mean distance from KSR1 profile 1.44.
Knock-down of TEKT3 (GeneID 64518) came out at: mean correlation with KSR1 profile 0.479; mean distance from KSR1 profile 1.58.

Part of the list above, reformatted.
target | mean correlation with KSR1 profile | mean distance from KSR1 profile
SEMA3F (GeneID 6405) | -0.795 | 3.19
AP5S1 (GeneID 55317) | 0.689 | 1.44

The list goes on.
RNPC3 (GeneID 55599) scored mean correlation with KSR1 profile -0.767; mean distance from KSR1 profile 2.87.
HTR1D (GeneID 3352) scored mean correlation with KSR1 profile 0.655; mean distance from KSR1 profile 1.59.
CCL20 (GeneID 6364) scored mean correlation with KSR1 profile 0.227; mean distance from KSR1 profile 1.28.
After knock-down of NUP62CL (GeneID 54830), the record shows mean correlation with KSR1 profile -0.242; mean distance from KSR1 profile 1.55.
Silencing of ACP4 (GeneID 93650) came out at: mean correlation with KSR1 profile 0.21; mean distance from KSR1 profile 1.59.
Against HNRNPDL (GeneID 9987), the entry reads mean correlation with KSR1 profile -0.383; mean distance from KSR1 profile 2.26.
CD80 (GeneID 941) gave mean correlation with KSR1 profile -0.062; mean distance from KSR1 profile 4.12.
BACE1 (GeneID 23621) scored mean correlation with KSR1 profile -0.504; mean distance from KSR1 profile 3.79.
Depletion of RAG1 (GeneID 5896) gave: mean correlation with KSR1 profile -0.079; mean distance from KSR1 profile 2.25.
YTHDC2 (GeneID 64848) scored mean correlation with KSR1 profile 0.145; mean distance from KSR1 profile 1.74.
DIP2A (GeneID 23181) scored mean correlation with KSR1 profile 0.716; mean distance from KSR1 profile 2.83.
For DLAT (GeneID 1737) the deposit lists mean correlation with KSR1 profile 0.0978; mean distance from KSR1 profile 1.66.
With knock-down of TMEM123 (GeneID 114908) the results were mean correlation with KSR1 profile -0.428; mean distance from KSR1 profile 2.14.
Against TFDP1 (GeneID 7027) the deposit lists mean correlation with KSR1 profile 0.515; mean distance from KSR1 profile 1.48.
KERA (GeneID 11081) gave mean correlation with KSR1 profile -0.519; mean distance from KSR1 profile 2.51.
RAB1B (GeneID 81876) gave mean correlation with KSR1 profile -0.0941; mean distance from KSR1 profile 3.42.
Silencing of SPINT1 (GeneID 6692) came out at: mean correlation with KSR1 profile 0.41; mean distance from KSR1 profile 0.862.
